Tested on: MCF7
Experiment: Cytotoxicity against human MCF7 cells by MTT assay

CC(=O)O[C@H]1C(=O)[C@@]2(C)[C@H]([C@H](OC(=O)c3ccccc3)[C@]3(O)C[C@H](OC(=O)[C@H](O)[C@@H](NC(=O)c4ccccc4)c4ccccc4)C(C)=C1C3(C)C)[C@]1(OC(C)=O)CO[C@@H]1C[C@@H]2O [PACLITAXEL]
IC50: 12.4 nM

From ChEMBL document CHEMBL1141275, “Sesquiterpenoids from Bombax malabaricum” (J Nat Prod, 2007)
